PubChem BioAssay AID493246, Drosophila RNAi Screening Center, 2011
Aim: 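Genes fly cells need to grow and stay alive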 (primary screen). Cells: Drosophila Kc and S2R+ cells. Knock-down reagent: long dsRNA against Drosophila genes. Measured: 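Cell number per well after knock-down, printed as raw plate values; calls were based on per-plate z-scores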. Scale: Kc cell number and S2R+ cell number: higher = more cells remaining. Hit rule: 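Counted as a hit if cell number falls by a z-score of at least 3 within its plate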.
The deposit covers about 21,000 reagents; below is an unselected part of those with a known target gene and a result. Of all reagents, 429 (2%) are marked active. 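Values are raw and not normalised between plates; calls rest on per-plate z-scores that were not deposited.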 Reagents against one gene are numbered here. Names joined by + are all predicted targets of the reagent. No sequences are given here. Not stated in the record: the amount of reagent, the time to read-out.

Target gene	reagent	Kc cell number, rep 1	Kc cell number, rep 2	S2R+ cell number, rep 1	S2R+ cell number, rep 2	activity call
AstA-R1 (GeneID 44126)	1	1.31e6	1.52e6	1.11e6	1.14e6	inactive
AstA-R1 (GeneID 44126)	2	1.60e6	1.57e6	1.03e6	1.19e6	inactive
CG9920 (GeneID 41712)	1	1.20e6	1.26e6	1.20e6	1.32e6	inactive
Tsp42Eb + CG30160	1	1.47e6	1.55e6	1.00e6	1.12e6	inactive
Tsp42Eb + CG30160	2	1.60e6	1.66e6	1.36e6	1.52e6	inactive
CG31560 (GeneID 40772)	1	1.67e6	1.79e6	1.36e6	1.57e6	inactive
AdipoR (GeneID 42656)	1	1.39e6	1.49e6	1.17e6	1.20e6	inactive
Prosbeta2R2 (GeneID 40621)	1	1.64e6	1.86e6	1.23e6	1.33e6	inactive
Tsr1 (GeneID 40360)	1	1.30e6	1.43e6	1.23e6	1.33e6	inactive
Cdc42 (GeneID 32981)	1	1.34e6	1.37e6	9.96e5	1.16e6	inactive
CG9444 (GeneID 41175)	1	1.34e6	1.48e6	1.34e6	1.47e6	inactive
CG5107 (GeneID 43084)	1	5.16e5		7.27e5		inactive
Atpalpha (GeneID 48971)	1	1.64e6	1.76e6	1.23e6	1.33e6	inactive
CG32945 (GeneID 318261)	1	1.46e6	1.53e6	1.14e6	1.40e6	inactive
Tgi (GeneID 39521)	1	1.28e6	1.38e6	1.27e6	1.39e6	inactive
Tgi (GeneID 39521)	2	1.30e6	1.47e6	1.25e6	1.34e6	inactive
Rack1 (GeneID 34070)	1	1.55e6	1.64e6	1.05e6	1.16e6	inactive
und (GeneID 34294)	1	1.50e6	1.55e6	9.86e5	1.02e6	inactive
axed (GeneID 38741)	1	1.39e6	1.42e6	1.14e6	1.26e6	inactive
axed (GeneID 38741)	2	1.50e6	1.34e6	1.23e6	1.28e6	inactive
CG10405 (GeneID 41996)	1	1.52e6	1.56e6	1.06e6	1.14e6	inactive
CG10459 (GeneID 36000)	1	1.79e6	1.87e6	1.47e6	1.65e6	inactive
PH4alphaSG2 (GeneID 43623)	1	1.45e6	1.40e6	9.91e5	1.11e6	inactive
5-HT7 (GeneID 43669)	1	5.62e5		8.77e5		inactive
otp (GeneID 37364)	1	1.46e6	1.59e6	1.24e6	4.20e5	inactive
otp (GeneID 37364)	2	1.41e6	1.57e6	1.22e6	4.02e5	inactive
krz (GeneID 53554)	1	1.68e6	1.69e6	1.04e6	1.07e6	inactive
CG14591 (GeneID 35531)	1	1.71e6	1.79e6	1.23e6	1.37e6	inactive
CG15043 (GeneID 32835)	1	1.60e6	1.62e6	1.16e6	1.23e6	inactive
Sry-delta (GeneID 43572)	1	5.67e5		7.16e5		inactive
Rpn1 (GeneID 40174)	1	8.53e5	9.78e5	7.53e5	8.24e5	active
Nprl2 (GeneID 32677)	1	1.45e6	1.50e6	1.05e6	1.10e6	inactive
CG13245 (GeneID 50456)	1	1.38e6	1.36e6	1.34e6	1.33e6	inactive
CG3699 (GeneID 31046)	1	1.71e6	1.71e6	1.08e6	1.22e6	inactive
CG3699 (GeneID 31046)	2	1.71e6	1.81e6	1.09e6	1.23e6	inactive
DCTN1-p150 (GeneID 39536)	1	1.57e6	1.68e6	1.22e6	1.31e6	inactive
CG6271 (GeneID 43252)	1	4.91e5		8.09e5		inactive
CG13010 (GeneID 32643)	1	1.33e6	1.39e6	9.87e5	1.05e6	inactive
PGAP5 (GeneID 34116)	1	1.70e6	1.84e6	1.33e6	1.46e6	inactive
CG12985 (GeneID 32774)	1	1.49e6	1.48e6	1.06e6	1.15e6	inactive
HDAC11 (GeneID 326120)	1	1.48e6	1.40e6	1.03e6	1.05e6	inactive
cv-c (GeneID 41749)	1	1.45e6	1.45e6	1.19e6	1.28e6	inactive
cv-c (GeneID 41749)	2	1.40e6	1.50e6	1.18e6	1.33e6	inactive
cv-c (GeneID 41749)	3	1.27e6	1.22e6	8.86e5	9.74e5	inactive
cv-c (GeneID 41749)	4	1.50e6	1.54e6	1.01e6	1.15e6	inactive
cv-c (GeneID 41749)	5	1.50e6	1.57e6	9.65e5	1.05e6	inactive
cv-c (GeneID 41749)	6	1.46e6	1.44e6	1.14e6	1.20e6	inactive
Vta1 (GeneID 38204)	1	1.57e6	1.68e6	1.07e6	1.18e6	inactive
CG3513 (GeneID 33590)	1	1.57e6	1.49e6	1.17e6	1.31e6	inactive
GstE4 (GeneID 37109)	1	1.54e6	1.59e6	1.08e6	1.29e6	inactive
CG13078 (GeneID 35251)	1	1.59e6	1.61e6	1.33e6	5.65e5	inactive
dlp (GeneID 39596)	1	1.05e6	1.21e6	8.05e5	8.75e5	inactive
dlp (GeneID 39596)	2	1.32e6	1.38e6	1.13e6	1.17e6	inactive
Obp58b (GeneID 37607)	1	1.48e6	1.56e6	1.28e6	1.31e6	inactive
shtd (GeneID 32473)	1	5.59e5		8.26e5		inactive
CG6283 (GeneID 43250)	1	1.42e6	1.45e6	9.55e5	1.10e6	inactive
CG11313 (GeneID 43646)	1	1.75e6	1.81e6	1.10e6	1.20e6	inactive
Rad23 (GeneID 43785)	1	4.92e5		8.15e5		inactive
dsf (GeneID 33823)	1	1.38e6	1.34e6	1.03e6	1.21e6	inactive

Copied from the list:
Value of axed (GeneID 38741) #1 in “Kc cell number, rep 1”: 1.39e6
CG11313 (GeneID 43646), S2R+ cell number, rep 2 → 1.20e6
Under “S2R+ cell number, rep 2”, Rack1 (GeneID 34070) shows 1.16e6
Tsp42Eb + CG30160 #1, S2R+ cell number, rep 1 → 1.00e6
Entry for otp (GeneID 37364) #2 under “S2R+ cell number, rep 1”: 1.22e6
For “Kc cell number, rep 1”, Tgi (GeneID 39521) #2 has 1.30e6
